These are yes or no findings as the source states them, for the method shown. In cells and extracts the contact can be indirect. Binding calls can cover weak binding; strength is not graded here.
Experiments:
[1] = target: T1, IFT139 (C. reinhardtii (endogenous in dhc1b-3 cilia)) (UniProt A9XPA6); assay: cross-linking; in situ cross-linking mass spectrometry: dhc1b-3 cells after 10 h at 34°C, deciliated, 1 mM DSSO for 45 minutes at room temperature, quenched with Tris, cilia isolated; 3% FDR at the residue pair level
T1 sequence: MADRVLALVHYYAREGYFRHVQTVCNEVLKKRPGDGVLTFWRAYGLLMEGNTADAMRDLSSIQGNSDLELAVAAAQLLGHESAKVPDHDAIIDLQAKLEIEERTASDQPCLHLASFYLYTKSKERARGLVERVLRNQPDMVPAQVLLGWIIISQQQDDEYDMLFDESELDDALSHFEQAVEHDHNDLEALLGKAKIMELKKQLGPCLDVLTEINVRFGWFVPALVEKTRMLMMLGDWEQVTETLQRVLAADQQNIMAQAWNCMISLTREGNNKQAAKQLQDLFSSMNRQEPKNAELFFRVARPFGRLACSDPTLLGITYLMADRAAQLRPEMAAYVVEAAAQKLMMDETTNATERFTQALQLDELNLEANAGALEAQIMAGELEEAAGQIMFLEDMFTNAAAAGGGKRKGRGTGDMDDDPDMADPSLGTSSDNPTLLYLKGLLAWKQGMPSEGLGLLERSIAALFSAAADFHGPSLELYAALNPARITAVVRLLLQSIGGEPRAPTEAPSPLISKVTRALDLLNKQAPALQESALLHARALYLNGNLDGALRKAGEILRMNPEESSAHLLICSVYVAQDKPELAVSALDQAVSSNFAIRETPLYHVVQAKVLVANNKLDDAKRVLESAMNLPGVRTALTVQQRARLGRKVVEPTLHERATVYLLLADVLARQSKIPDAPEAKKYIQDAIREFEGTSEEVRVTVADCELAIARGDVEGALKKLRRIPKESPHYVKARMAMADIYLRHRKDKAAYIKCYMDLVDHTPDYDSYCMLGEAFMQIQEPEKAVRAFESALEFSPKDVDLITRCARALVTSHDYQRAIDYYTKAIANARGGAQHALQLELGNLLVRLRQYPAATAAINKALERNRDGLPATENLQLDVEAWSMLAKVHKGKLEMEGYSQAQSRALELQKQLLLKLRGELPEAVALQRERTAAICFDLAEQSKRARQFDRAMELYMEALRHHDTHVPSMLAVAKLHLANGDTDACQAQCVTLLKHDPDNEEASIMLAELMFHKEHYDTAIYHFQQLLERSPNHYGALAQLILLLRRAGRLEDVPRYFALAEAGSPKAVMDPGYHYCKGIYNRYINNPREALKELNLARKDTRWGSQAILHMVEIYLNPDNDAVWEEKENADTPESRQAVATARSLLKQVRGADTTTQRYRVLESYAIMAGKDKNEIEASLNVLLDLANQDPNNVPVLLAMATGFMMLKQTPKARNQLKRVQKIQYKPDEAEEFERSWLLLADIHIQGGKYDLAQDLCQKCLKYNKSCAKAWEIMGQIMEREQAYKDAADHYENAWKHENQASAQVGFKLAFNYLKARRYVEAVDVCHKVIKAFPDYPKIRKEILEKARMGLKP

[2] = target: T2, IFT74 (C. reinhardtii (endogenous in dhc1b-3 cilia)) (UniProt Q6RCE1); assay: as above
T2 sequence: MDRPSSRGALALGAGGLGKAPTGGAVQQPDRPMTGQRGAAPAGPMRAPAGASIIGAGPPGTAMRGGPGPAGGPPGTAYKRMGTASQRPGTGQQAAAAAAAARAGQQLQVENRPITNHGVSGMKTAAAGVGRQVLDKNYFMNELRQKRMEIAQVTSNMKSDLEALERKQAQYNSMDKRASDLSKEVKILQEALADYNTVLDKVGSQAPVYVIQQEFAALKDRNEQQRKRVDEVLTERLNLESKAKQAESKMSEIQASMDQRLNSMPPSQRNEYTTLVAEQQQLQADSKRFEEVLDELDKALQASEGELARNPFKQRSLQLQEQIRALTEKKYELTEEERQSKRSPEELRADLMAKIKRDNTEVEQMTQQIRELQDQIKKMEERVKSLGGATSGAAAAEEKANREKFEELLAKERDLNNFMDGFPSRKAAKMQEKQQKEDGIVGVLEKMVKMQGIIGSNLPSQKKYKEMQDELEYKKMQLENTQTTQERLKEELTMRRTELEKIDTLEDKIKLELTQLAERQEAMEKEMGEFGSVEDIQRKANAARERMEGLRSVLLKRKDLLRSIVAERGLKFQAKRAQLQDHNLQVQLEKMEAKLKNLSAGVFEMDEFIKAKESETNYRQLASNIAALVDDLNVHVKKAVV

IFT38
binding [1]: binds

FAP11
binding [2]: binds
